Consider one compound from publication PMC10766984, “Josephin domain containing 2 (JOSD2) promotes lung cancer by inhibiting LKB1 (Liver kinase B1) activity” (Signal Transduction and Targeted Therapy, 2024).

The target in the test is T1, GST-JOSD2 (Homo sapiens, UniProt Q8TAC2).
T1 sequence (Q8TAC2 1-188): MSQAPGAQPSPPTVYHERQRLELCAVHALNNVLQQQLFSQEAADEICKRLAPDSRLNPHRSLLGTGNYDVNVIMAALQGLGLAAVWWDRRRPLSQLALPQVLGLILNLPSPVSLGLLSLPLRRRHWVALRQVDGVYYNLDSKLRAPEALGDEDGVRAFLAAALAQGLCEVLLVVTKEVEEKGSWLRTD
The settings on record: compound concentration 2 μM; JOSD2 inhibitor screening, related to Fig. 7a.

The structures appear in SMILES notation.

Take `CN(C)CCOC(c1ccccc1)c1ccccc1.Cn1c(=O)c2[nH]c(Cl)nc2n(C)c1=O` [Dimenhydrinate]: the “JOSD2 Activity Inhibition (%)” value is -24.96%.
